The list shows only some results of the screen, not a fair sample: it gathers tests that were run many times, whatever their T/C, doses with no T/C, and many T/C values between a quarter and a half above the control. Further doses and runs are listed elsewhere. T/C is the treated group as % of the vehicle group. Some entries give survivors of the animals treated and no T/C: the source files T/C as zero there, which appears to mark a toxic dose or a test without result, not a measured value. Some survivor counts are full or nearly so, which does not show that the dose was tolerated: survival well below the control is almost never listed, so the zero probably covers shortened survival too. Survivors were counted at the toxicity check, usually on the fifth day, unless a day is given; later deaths do not show. Schedule codes are those of the source, taken here to give the interval after Q, in days (D) or hours (H), and the number of doses after X. Some doses were run more than once; the results are listed from low to high. Where survival is the endpoint, the PubChem record calls one and a half times the control and up active, and a quarter to a half above the control has no call in these data; cut-offs in other NCI protocols can differ. Some T/C values carry the count of animals alive at the toxicity check (mostly the fifth day); where none is given, no animal had died by that day.
System: BDF1 mice, P388 leukemia ip, median survival T/C
Test: NCI In Vivo Anticancer Drug Screen. Data for tumor model P388 Leukemia (intraperitoneal) in B6D2F1 (BDF1) mice
Conditions: T/C endpoint: median survival time, higher T/C = longer survival
Outline: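 Steps: implant the tumour, treat one group with compound and another with vehicle, record survival, then divide treated by control.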

[1] = dose: 0.75 mg/kg/injection, schedule: Q01DX010 (ip), vehicle: saline
[2] = dose: 1.0 mg/kg/injection, schedule: Q01DX010 (ip), vehicle: saline
[3] = dose: 1.5 mg/kg/injection, schedule: Q01DX010 (ip), vehicle: saline
[4] = dose: 3.0 mg/kg/injection, schedule: Q01DX010 (ip), vehicle: saline
[5] = dose: 400.0 mg/kg/injection, schedule: Q04DX003 (ip), vehicle: saline with Tween-80
[6] = dose: 200.0 mg/kg/injection, schedule: Q04DX003 (ip), vehicle: saline with Tween-80
[7] = dose: 400.0 mg/kg/injection, schedule: Q04DX003 (ip), vehicle: Klucel (hydroxypropylcellulose) (HPC)
[8] = dose: 20.0 mg/kg/injection, schedule: Q01DX009 (ip), vehicle: saline
[9] = dose: 200.0 mg/kg/injection, schedule: Q01DX009 (ip), vehicle: saline with Tween-80

COC(=O)[C@@H]1c2cc3c(c(O)c2[C@@H](OC2OC(C)C(OC)C(C)(OC)C2OC)C[C@]1(C)O)C(=O)c1c(O)cc2c(c1C3=O)O[C@H]1O[C@]2(C)[C@H](O)[C@@H](N(C)C)[C@@H]1O (some centres not stated)
T/C (dose: 0.13 mg/kg/injection, schedule: Q01DX010 (ip), vehicle: saline): 140 % of control
T/C (dose: 0.19 mg/kg/injection, schedule: Q01DX010 (ip), vehicle: saline): 127 % of control
T/C (dose: 0.25 mg/kg/injection, schedule: Q01DX009 (ip), vehicle: saline): 140 % of control
T/C (dose: 0.25 mg/kg/injection, schedule: Q01DX010 (ip), vehicle: saline): 127 [5 of 6 alive] and 140 % of control
survivor count (dose: 0.38 mg/kg/injection, schedule: Q01DX010 (ip), vehicle: saline): 6 of 6
T/C (dose: 0.5 mg/kg/injection, schedule: Q01DX009 (ip), vehicle: saline): 140 % of control
T/C (dose: 0.5 mg/kg/injection, schedule: Q01DX010 (ip), vehicle: saline): 127 % of control
T/C (dose: 0.65 mg/kg/injection, schedule: Q04DX003 (ip), vehicle: water): 144 % of control
T/C (dose: 0.75 mg/kg/injection, schedule: Q01DX001 (ip), vehicle: saline): 127 % of control
T/C [1]: 122, 131, 145 % of control
survivor count [1]: 6 of 6
T/C [2]: 140 % of control
survivor count [2]: 7 of 7
T/C (dose: 1.08 mg/kg/injection, schedule: Q04DX003 (ip), vehicle: water): 147 % of control
T/C (dose: 1.3 mg/kg/injection, schedule: Q04DX003 (ip), vehicle: water): 130 % of control
T/C (dose: 1.5 mg/kg/injection, schedule: Q01DX001 (ip), vehicle: saline): 127 % of control
T/C [3]: 131 [9 of 10 alive] and 140 % of control
survivor count [3]: 5 of 6 and 6 of 6
T/C (dose: 1.8 mg/kg/injection, schedule: Q04DX003 (ip), vehicle: water): 147 % of control
survivor count (dose: 2.0 mg/kg/injection, schedule: Q01DX010 (ip), vehicle: saline): 5 of 7 and 6 of 6
T/C (dose: 3.0 mg/kg/injection, schedule: Q01DX001 (ip), vehicle: saline): 136 % of control
T/C [4]: 145 % of control
survivor count [4]: 0 of 6, 2 of 6, 10 of 10
survivor count (dose: 3.6 mg/kg/injection, schedule: Q04DX003 (ip), vehicle: water): 7 of 8
survivor count (dose: 4.0 mg/kg/injection, schedule: Q01DX010 (ip), vehicle: saline): 3 of 6
T/C (dose: 6.0 mg/kg/injection, schedule: Q01DX001 (ip), vehicle: saline): 131 % of control
survivor count (dose: 6.0 mg/kg/injection, schedule: Q01DX010 (ip), vehicle: saline): 4 of 10 and 10 of 10
survivor count (dose: 6.0 mg/kg/injection, schedule: Q04DX003 (ip), vehicle: water): 2 of 8
T/C (dose: 12.0 mg/kg/injection, schedule: Q01DX001 (ip), vehicle: saline): 145 % of control [7 of 10 alive]
survivor count (dose: 12.0 mg/kg/injection, schedule: Q01DX010 (ip), vehicle: saline): 0 of 10 and 1 of 10
T/C (dose: 60.0 micrograms/kg/injection, schedule: Q01DX010 (ip), vehicle: saline): 130 % of control

CC(Cc1ccccc1)C(N)=O (configuration not stated)
survivor count [5]: 5 of 6

COc1ccc2c(c1O)-c1cccc3c1[C@@H](C2)N(CCCl)CC3
T/C (dose: 12.5 mg/kg/injection, schedule: Q04DX003 (ip), vehicle: saline with Tween-80): 127 % of control
survivor count (dose: 100.0 mg/kg/injection, schedule: Q04DX003 (ip), vehicle: saline with Tween-80): 6 of 6
survivor count [6]: 1 of 6
survivor count [5]: 0 of 6

C[C@H]1/C(=C/C(=O)OCCN(C)C)CC[C@H]2[C@H]1C(=O)C[C@H]1C(C)(C)[C@@H](O)CC[C@]21C
survivor count (dose: 50.0 mg/kg/injection, schedule: Q01DX009 (ip), vehicle: saline): 0 of 6
survivor count (dose: 64.0 mg/kg/injection, schedule: Q01DX010 (ip), vehicle: saline): 0 of 6
survivor count (dose: 100.0 mg/kg/injection, schedule: Q01DX009 (ip), vehicle: saline): 0 of 6
survivor count (dose: 128.0 mg/kg/injection, schedule: Q01DX010 (ip), vehicle: saline): 0 of 6
survivor count (dose: 200.0 mg/kg/injection, schedule: Q01DX009 (ip), vehicle: saline): 0 of 6
survivor count (dose: 400.0 mg/kg/injection, schedule: Q01DX009 (ip), vehicle: saline): 0 of 6

CC(=O)Nc1cc(F)c([N+](=O)[O-])cc1[N+](=O)[O-]
T/C (dose: 1.25 mg/kg/injection, schedule: Q01DX009 (ip), vehicle: saline): 135 % of control
survivor count (dose: 40.0 mg/kg/injection, schedule: Q01DX009 (ip), vehicle: Klucel (hydroxypropylcellulose) (HPC)): 3 of 6

c1ccc2c3nc(nc2c1)CCCCCCCN3
survivor count [7]: 2 of 6

O=Cc1ccc(N2CCCCC2)cc1
survivor count [7]: 4 of 6

Cc1cnc(Cl)nc1Sc1nc(N)nc2nc[nH]c12
T/C (dose: 4.0 mg/kg/injection, schedule: Q01DX009 (ip), vehicle: saline with Tween-80): 138 % of control
T/C (dose: 9.0 mg/kg/injection, schedule: Q01DX009 (ip), vehicle: saline with Tween-80): 138 % of control
survivor count [6]: 6 of 6
survivor count [5]: 6 of 6

Nc1ccc(O)c2ncccc12
survivor count (dose: 30.0 mg/kg/injection, schedule: Q01DX010 (ip), vehicle: saline): 4 of 6
survivor count (dose: 60.0 mg/kg/injection, schedule: Q01DX010 (ip), vehicle: saline): 1 of 6

O=C(O)CCc1c[nH]c2ccc(N(CCCl)CCCl)cc12
T/C (dose: 0.15 mg/kg/injection, schedule: Q04DX003 (ip), vehicle: saline with Tween-80): 127 % of control
T/C (dose: 0.3 mg/kg/injection, schedule: Q04DX003 (ip), vehicle: saline with Tween-80): 136 % of control
T/C (dose: 0.33 mg/kg/injection, schedule: Q04DX003 (ip), vehicle: saline with Tween-80): 141 % of control
survivor count (dose: 2.0 mg/kg/injection, schedule: Q04DX003 (ip), vehicle: saline): 6 of 6

O=C(O)c1nc2nc(Cl)c(Cl)nc2[nH]1
survivor count (dose: 400.0 mg/kg/injection, schedule: Q04DX003 (ip), vehicle: saline): 3 of 6

C[N+](C)(C)Cc1ccccc1/C(=N\O)c1ccccc1
survivor count [8]: 4 of 6

Cc1cc(N(C)C)c2ccc3cc4ccccc4cc3c2n1
T/C [9]: 128 % of control
survivor count [9]: 3 of 6

CCCCCCCCCCCCCCSCCSCCSCCCCCCCCCCCCCC
survivor count (dose: 50.0 mg/kg/injection, schedule: Q01DX001 (ip), vehicle: saline sonified): 6 of 6

C=C(Br)CNCCCCCC
survivor count (dose: 45.0 mg/kg/injection, schedule: Q04DX003 (ip), vehicle: Klucel (hydroxypropylcellulose) (HPC)): 0 of 6
survivor count (dose: 150.0 mg/kg/injection, schedule: Q04DX003 (ip), vehicle: Klucel (hydroxypropylcellulose) (HPC)): 0 of 6

CC[n+]1ccc(Nc2ccc(/C=C/c3ccc4cc(Nc5cc[n+](CC)cc5)ccc4[n+]3CC)cc2)cc1
T/C (dose: 3.3 mg/kg/injection, schedule: Q04DX003 (ip), vehicle: saline): 129 % of control
T/C (dose: 5.0 mg/kg/injection, schedule: Q04DX003 (ip), vehicle: saline): 133 % of control
T/C (dose: 7.5 mg/kg/injection, schedule: Q04DX003 (ip), vehicle: saline): 129 % of control
survivor count [8]: 1 of 6
